Reference: PMC10112892
These are yes or no findings as the source states them, for the method shown. Binding seen in cells or lysates may run through a third protein. Some entries that bind do so weakly or less than the wild type. Where a sequence is shown, tags or fusion partners need not be part of it.

Protein sequences, listed by entry. Tags and fused reporters are not part of them.
UniProt P22061: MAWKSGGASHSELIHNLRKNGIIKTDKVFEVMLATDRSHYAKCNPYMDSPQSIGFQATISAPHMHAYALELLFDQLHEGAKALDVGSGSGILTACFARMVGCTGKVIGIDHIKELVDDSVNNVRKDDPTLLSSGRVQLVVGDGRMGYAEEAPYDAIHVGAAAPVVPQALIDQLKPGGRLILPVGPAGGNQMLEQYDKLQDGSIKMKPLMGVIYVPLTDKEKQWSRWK

Biological target: T1, Flag-TRAF2 (UniProt Q12933)
T1 sequence: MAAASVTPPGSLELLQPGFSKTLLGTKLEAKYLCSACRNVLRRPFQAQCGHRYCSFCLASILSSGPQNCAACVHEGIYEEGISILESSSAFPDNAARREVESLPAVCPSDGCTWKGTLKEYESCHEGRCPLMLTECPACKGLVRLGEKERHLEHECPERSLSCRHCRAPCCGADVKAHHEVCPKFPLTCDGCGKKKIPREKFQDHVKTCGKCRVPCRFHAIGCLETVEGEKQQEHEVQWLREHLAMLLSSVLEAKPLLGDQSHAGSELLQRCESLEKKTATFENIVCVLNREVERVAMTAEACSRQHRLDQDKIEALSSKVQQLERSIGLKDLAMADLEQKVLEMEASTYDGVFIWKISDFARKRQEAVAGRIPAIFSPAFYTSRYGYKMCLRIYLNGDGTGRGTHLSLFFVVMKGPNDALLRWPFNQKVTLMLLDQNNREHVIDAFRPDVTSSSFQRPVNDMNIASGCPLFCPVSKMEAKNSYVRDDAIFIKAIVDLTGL
Assay: co-IP; HEK-293T cells co-transfected with tagged constructs, lysed 48 hr later in IP buffer (20 mM Tris pH 8.0, 137 mM NaCl, 2 mM EDTA, 1% NP-40, 10% glycerol); Anti-FLAG M2 magnetic beads at 4°C overnight; western blot; in Figure 4A and 4G with or without co-expressed Myc-PIMT

With “Myc-tagged PIMT (protein L-isoaspartyl O-methyltransferase), wild type (from UniProt P22061 1-227) (enzyme)” the binding was “binds weakly”.
